# Measured values taken from doi:10.1101/2023.02.20.529182.
# Target: DjlA variant with a C-terminal HA-tag (DjlA-HA) (C. crescentus)
# Assay: co-IP
substance,measurement,value
TipR (from UniProt A0A0H3C6G9),binding,binds

# No constants are given. Whether binding was seen depends on the method and setting. In cells and extracts the contact can be indirect. Binding can be weak; no strength is given.
